PubChem BioAssay AID330 (DTP/NCI, 2004)
The list shows only some results of the screen, not a fair sample: it is rich in T/C values a quarter to a half above the control, in often repeated tests (any T/C) and in doses without a T/C. Other doses and runs of a compound stand elsewhere. T/C gives the treated animals as a percentage of the vehicle group. Some entries give survivors of the animals treated and no T/C: the source files T/C as zero there, which appears to mark a toxic dose or a test without result, not a measured value. Some doses without a T/C left all or most animals alive at the check, yet need not have been tolerated: the source hardly ever lists a survival T/C far under the control, and the zero likely stands for such cases as well. Survivors were counted at the toxicity check, usually on the fifth day, unless a day is given; later deaths do not show. Schedule codes are those of the source, taken here to give the interval after Q, in days (D) or hours (H), and the number of doses after X. Some entries hold several experiments; the values are given in rising order. Where survival is the endpoint, the PubChem record calls one and a half times the control and up active, and a quarter to a half above the control has no call in these data; cut-offs in other NCI protocols can differ.

Test system: P388 leukemia ip, CD2F1 mice, survival T/C
Assay: NCI In Vivo Anticancer Drug Screen. Data for tumor model P388 Leukemia (intraperitoneal) in CD2F1 (CDF1) mice
Details: T/C endpoint: median survival time, higher T/C = longer survival
[1] = dose: 400.0 mg/kg/injection, schedule: Q01DX001 (ip), vehicle: Klucel (hydroxypropylcellulose) (HPC)
[2] = dose: 240.0 mg/kg/injection, schedule: Q01DX005 (ip), vehicle: saline with Tween-80
[3] = dose: 50.0 mg/kg/injection, schedule: Q01DX009 (ip), vehicle: Klucel (hydroxypropylcellulose) (HPC)
[4] = dose: 1.0 mg/kg/injection, schedule: Q01DX009 (ip), vehicle: saline + alcohol
[5] = dose: 100.0 mg/kg/injection, schedule: Q01DX009 (ip), vehicle: Klucel (hydroxypropylcellulose) (HPC)
[6] = dose: 200.0 mg/kg/injection, schedule: Q01DX009 (ip), vehicle: Klucel (hydroxypropylcellulose) (HPC)
[7] = dose: 200.0 mg/kg/injection, schedule: Q01DX005 (ip), vehicle: saline
[8] = dose: 4.0 mg/kg/injection, schedule: Q01DX009 (ip), vehicle: saline + alcohol
[9] = dose: 200.0 mg/kg/injection, schedule: Q01DX009 (ip), vehicle: saline

With FC(F)(F)C1(C(F)(F)F)OI2(Br)(OC(C(F)(F)F)(C(F)(F)F)c3ccccc32)c2ccccc21 the survivor count (dose: 25.0 mg/kg/injection, schedule: Q01DX005 (ip), vehicle: Klucel (hydroxypropylcellulose) (HPC)) was 0 of 6, the survivor count (dose: 50.0 mg/kg/injection, schedule: Q01DX005 (ip), vehicle: Klucel (hydroxypropylcellulose) (HPC)) was 0 of 6 and the survivor count (dose: 100.0 mg/kg/injection, schedule: Q01DX005 (ip), vehicle: Klucel (hydroxypropylcellulose) (HPC)) was 0 of 6. For the same compound, the survivor count (dose: 200.0 mg/kg/injection, schedule: Q01DX005 (ip), vehicle: Klucel (hydroxypropylcellulose) (HPC)) was 0 of 6.
With CC(C)CC(=O)N(CCC#N)c1ncc([N+](=O)[O-])s1 the survivor count [1] was 3 of 6.
CCO/C=C1N=C(/C=C/c2ccc(Cl)cc2)OC/1=O was tested, and the survivor count [2] was 6 of 6.
With CNC1CC2OC(C)(C1OC)n1c3ccccc3c3c4c(c5c6ccccc6n2c5c31)C(=O)NC4 (stereo not drawn) the survivor count (dose: 3.0 mg/kg/injection, schedule: Q01DX005 (ip), vehicle: water) was 5 of 6 and the survivor count (dose: 6.0 mg/kg/injection, schedule: Q01DX005 (ip), vehicle: water) was 0 of 6.
For CCOC(=O)C(C)(C)c1nc[nH]c1[N+](=O)[O-], the survivor count (dose: 100.0 mg/kg/injection, schedule: Q04DX003 (ip), vehicle: saline with Tween-80) was 6 of 6.
With O=C(NC(=O)C(F)(F)C(F)(F)F)Nc1cccc(F)c1 the survivor count [3] was 6 of 6.
O=c1[nH]c(=O)c2c(Br)[nH]nc2[nH]1 was tested, and the survivor count [1] was 2 of 6.
For CCC/C=C\C=C\C(=O)OC1C2C=C3CC(C(C)O)OC(=O)CC(O)CC4CC(OC(C)=O)C(C)(C)C(O)(CC5C/C(=C\C(=O)OC)CC(/C=C/C(C)(C)C16OC(=O)C(O)C32O6)O5)O4 (stereo not drawn), the survivor count (dose: 0.06 mg/kg/injection, schedule: Q01DX009 (ip), vehicle: saline + alcohol) was 2 of 4, the survivor count (dose: 0.12 mg/kg/injection, schedule: Q01DX009 (ip), vehicle: saline + alcohol) was 1 of 4 and the survivor count (dose: 0.25 mg/kg/injection, schedule: Q01DX009 (ip), vehicle: saline + alcohol) was 0 of 5. For the same compound, the survivor count (dose: 0.5 mg/kg/injection, schedule: Q01DX009 (ip), vehicle: saline + alcohol) was 0 of 5, the survivor count [4] was 0 of 5 and the T/C (dose: 5.0 micrograms/kg/injection, schedule: Q01DX009 (ip), vehicle: saline + alcohol) was 134 % of control. The T/C (dose: 10.0 micrograms/kg/injection, schedule: Q01DX009 (ip), vehicle: saline + alcohol) was 142 % of control.
For Clc1ccc2c(c1)CN1Cc3cc(Cl)ccc3C2C1, the survivor count (dose: 200.0 mg/kg/injection, schedule: Q01DX001 (ip), vehicle: saline with Tween-80) was 5 of 6.
With C/C(=N\NC(=S)N1CCN(C2CCCCCC2)CC1)c1ccccn1 the survivor count (dose: 12.5 mg/kg/injection, schedule: Q01DX005 (ip), vehicle: saline with Tween-80) was 5 of 6, the survivor count (dose: 25.0 mg/kg/injection, schedule: Q01DX005 (ip), vehicle: saline with Tween-80) was 4 of 6 and the survivor count (dose: 50.0 mg/kg/injection, schedule: Q01DX005 (ip), vehicle: saline with Tween-80) was 4 of 6. The survivor count (dose: 100.0 mg/kg/injection, schedule: Q01DX005 (ip), vehicle: saline with Tween-80) was 0 of 6 and the survivor count (dose: 200.0 mg/kg/injection, schedule: Q01DX005 (ip), vehicle: saline with Tween-80) was 0 of 6.
With CCN=C1SCCCS1 the survivor count (dose: 200.0 mg/kg/injection, schedule: Q01DX009 (ip), vehicle: saline with Tween-80) was 1 of 6.
For CN1c2cccc[c]2[Sn]([CH3])([CH3])[c]2ccccc21, the T/C (dose: 120.0 mg/kg/injection, schedule: Q01DX005 (ip), vehicle: saline with Tween-80) was 130 % of control and the T/C [2] was 127 and 135 % of control.
For C[N+](C)(C)c1cc2c(nn1)Nc1ccccc1S2, the T/C (dose: 3.12 mg/kg/injection, schedule: Q01DX009 (ip), vehicle: Klucel (hydroxypropylcellulose) (HPC)) was 133 % of control, the T/C (dose: 6.25 mg/kg/injection, schedule: Q01DX009 (ip), vehicle: Klucel (hydroxypropylcellulose) (HPC)) was 125 % of control and the T/C (dose: 11.0 mg/kg/injection, schedule: Q01DX009 (ip), vehicle: Klucel (hydroxypropylcellulose) (HPC)) was 129 % of control. For the same compound, the T/C (dose: 12.5 mg/kg/injection, schedule: Q01DX009 (ip), vehicle: Klucel (hydroxypropylcellulose) (HPC)) was 138 % of control, the T/C (dose: 17.0 mg/kg/injection, schedule: Q01DX009 (ip), vehicle: Klucel (hydroxypropylcellulose) (HPC)) was 146 % of control and the T/C (dose: 25.0 mg/kg/injection, schedule: Q01DX009 (ip), vehicle: Klucel (hydroxypropylcellulose) (HPC)) was 138 and 146 % of control. For the same compound, the T/C (dose: 37.5 mg/kg/injection, schedule: Q01DX009 (ip), vehicle: Klucel (hydroxypropylcellulose) (HPC)) was 137 % of control, the survivor count [3] was 6 of 6 and the survivor count [5] was 1 of 6. The survivor count [6] was 0 of 6 and the survivor count (dose: 400.0 mg/kg/injection, schedule: Q01DX009 (ip), vehicle: Klucel (hydroxypropylcellulose) (HPC)) was 0 of 6.
In the case of C1CCNCC1.CC(=O)[CH-]C(=O)c1ccccc1.CC(=O)[CH-]C(=O)c1ccccc1.CC(=O)[CH-]C(=O)c1ccccc1.CC(=O)[CH-]C(=O)c1ccccc1.[Eu+3], the survivor count [3] is reported as 6 of 6 and the survivor count [6] is reported as 6 of 6.
With CN1CCC(c2ccccc2)C(OC(=O)c2ccccc2)C1 (stereo not drawn) the survivor count [7] was 6 of 6.
In the case of COC(=O)[C@@]12OC[C@]34[C@H]([C@@H](O)[C@@H]1O)[C@@]1(C)CC(=O)C(O)=C(C)[C@@H]1C[C@H]3OC(=O)[C@H](OC(=O)/C=C(/C)C(C)(C)O)[C@@H]24, the T/C [4] is reported as 127 % of control, the T/C (dose: 2.0 mg/kg/injection, schedule: Q01DX009 (ip), vehicle: saline + alcohol) is reported as 100, 128, 141, 151 % of control and the T/C [8] is reported as 116, 147, 150 % of control. The survivor count [8] was 3 of 6, the T/C (dose: 8.0 mg/kg/injection, schedule: Q01DX009 (ip), vehicle: saline + alcohol) was 133 % of control and the survivor count (dose: 16.0 mg/kg/injection, schedule: Q01DX009 (ip), vehicle: saline + alcohol) was 0 of 6 and 4 of 6. For the same compound, the survivor count (dose: 32.0 mg/kg/injection, schedule: Q01DX009 (ip), vehicle: saline + alcohol) was 0 of 6.
For O=c1[nH]c(=O)c2ncn(C3OC(CO)C(O)C3O)c2[nH]1.O=c1[nH]c(=O)c2ncn(C3OC(CO)C(O)C3O)c2[nH]1.[NH2-].[NH2-].[Pt+2] (stereo not drawn), the T/C (dose: 50.0 mg/kg/injection, schedule: Q04DX003 (ip), vehicle: water) was 133 % of control, the T/C (dose: 100.0 mg/kg/injection, schedule: Q04DX003 (ip), vehicle: water) was 137 % of control and the T/C [9] was 147 % of control. For the same compound, the survivor count [9] was 3 of 3, the T/C (dose: 200.0 mg/kg/injection, schedule: Q04DX003 (ip), vehicle: water) was 137 % of control and the survivor count (dose: 400.0 mg/kg/injection, schedule: Q01DX009 (ip), vehicle: saline) was 3 of 3. The T/C (dose: 400.0 mg/kg/injection, schedule: Q04DX003 (ip), vehicle: suspension in saline) was 129 % of control, the T/C (dose: 800.0 mg/kg/injection, schedule: Q04DX003 (ip), vehicle: suspension in saline) was 134 % of control and the survivor count (dose: 800.0 mg/kg/injection, schedule: Q04DX003 (ip), vehicle: water) was 0 of 3.
CCN(CC)C(C)C(=O)c1ccc2cc(Br)c3ccccc3c2c1 (stereo not drawn) was tested, and the survivor count [7] was 0 of 5.
In the case of Cc1cccc(C)c1N=O, the T/C [5] is reported as 130 and 132 % of control and the survivor count [6] is reported as 6 of 6.
In the case of Cc1ccc(C(=O)[Se][Se]C(=O)c2ccc(C)cc2)cc1, the survivor count (dose: 50.0 mg/kg/injection, schedule: Q01DX009 (ip), vehicle: saline with Tween-80) is reported as 0 of 6 and the survivor count (dose: 100.0 mg/kg/injection, schedule: Q01DX009 (ip), vehicle: saline with Tween-80) is reported as 0 of 6.
CC1(C)OC(=O)N=C1c1ccc(Br)cc1 was tested, and the survivor count (dose: 240.0 mg/kg/injection, schedule: Q01DX005 (ip), vehicle: Klucel (hydroxypropylcellulose) (HPC)) was 5 of 6.
